At least one structure is not confirmed: it was looked up by name or label, or the drawing left a doubt.
How the values were obtained:
[1] = Food intake and olanzapine-induced hyperphagia in rats on a high-fat diet, repeated oral administration; type: in vivo, female Sprague-Dawley rats; settings: olanzapine 3 mg/kg, pyrazoline 30 mg/kg, alone or combined
[2] = Novel object recognition test; settings: in vivo
[3] = Body weight and olanzapine-induced weight-gain in rats on a high-fat diet, repeated oral administration; type: in vivo, female Sprague-Dawley rats; settings: once daily po for 14 days; olanzapine 3 mg/kg, pyrazoline 30 mg/kg, alone or combined; Figure 1

SMILES: O=C(NN1CCCCC1)C1=NN(c2ccc(Cl)cc2Cl)C(c2ccc(Cl)cc2)C1 (centres unmarked) [N-piperidinyl-5-(4-chlorophenyl)-1-(2,4-dichlorophenyl)-4,5-dihydro-1H-pyrazole-3-carboxamide]
- food intake compared to the vehicle-treated controls ([1]; once daily po for 14 days, Figures 2 and 3): markedly reduced their food intakes
- cumulative intake of food over the first week versus vehicle controls (combination: also versus olanzapine) ([1]; once daily po, Figure 3): statistically lower (p < 0.01)
- novel object recognition test result [2]: very positive results
- body weight compared to the vehicle-treated controls [3]: gradual decrease in body weight
- mean body weight on Day 15 versus vehicle-treated controls (combination: also versus olanzapine) [3]: statistically (p < 0.02) lower

From patent publication EP1946777A1, “Substituted pyrazoline for preventing weight gain” (Laboratorios del Dr. Esteve S.A., priority 2007, dated 2008)
